For some assays here: End groups of sequences in plain letters are not given here.
How the values were obtained:
[1] = general procedure: Fmoc solid-phase peptide synthesis; amide chemmatrix resin (0.33 mmol/g) or Fmoc-Asp(tBu)-wang-LLresin (0.33 mmol/g); HCTU/NMM; settings: for isolated yield: whole synthesis, scale 0.01 mmol
MIA PaCa-2 = test: Intracellular trafficking, co-localization with endocytosis and intracellular markers; format: cell-based, human
SK-MEL-28 = test: as above; format: cell-based, human; settings: SK-MEL-28, 488-C-ter 20 µM

ANSKAVCNLPKAGDETCSNKTEIRWYYNGTACEAFIFKGCGGNDNNFDRVDDCQRLC-NH2
oxidative folding yield ([1]; oxidative folding step, several disulfide bridges, sequence written open): 75%
isolated yield ([1]; several disulfide bridges, sequence written open): 13%

EEQTHFHFESPKLIFKVQDYWILNDIMKKNLTGISLKSEEEDADSGEID
isolated yield [1]: 9%

EEQTHFHFESPKLIFKVQDYWILNDIMKKNLTGISLKSEEEDADSGEID [C-ter, Synthetic C-terminal domain of Amblyomin-X, fragment 58-106 with cysteine 67 mutated to Serine]
Co-localization with late endosomal markers LysoTracker and LAMP-2 (MIA PaCa-2; 488-C-ter 20 µM, especially in MIA PaCa-2): found in the co-localization
Co-localization with endocytosis markers (CTxB, TrF, dextran, cav-1) (MIA PaCa-2; MIA PaCa-2, 488-C-ter 20 µM): no pathway seems to be predominant
Nuclear translocation (MIA PaCa-2; MIA PaCa-2, 488-C-ter 20 µM): nucleus is not the main fate
Co-localization with endocytosis markers (CTxB, TrF, dextran, cav-1) (SK-MEL-28): preferentially co-localization with CTxB and cav-1
Nuclear translocation (SK-MEL-28): nucleus is not the main fate

Source: publication PMC9948614 (Frontiers in Molecular Biosciences, 2023)
